These are yes or no findings as the source states them, for the method shown.
Target: T1, recombinant human IL4 (Sigma, Cat #14269) (human), P05112
T1 chain: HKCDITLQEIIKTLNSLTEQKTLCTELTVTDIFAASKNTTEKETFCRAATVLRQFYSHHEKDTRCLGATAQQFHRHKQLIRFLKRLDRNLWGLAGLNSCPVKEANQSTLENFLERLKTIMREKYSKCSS
Experiment: HP-SEC, self-association
Conditions: remark: other sources report otherwise

binding: no binding
B1: recombinant human IL4 (Sigma, Cat #14269), P05112 25-153 (ligand, UniProt P05112 25-153, looked up)
chain: HKCDITLQEIIKTLNSLTEQKTLCTELTVTDIFAASKNTTEKETFCRAATVLRQFYSHHEKDTRCLGATAQQFHRHKQLIRFLKRLDRNLWGLAGLNSCPVKEANQSTLENFLERLKTIMREKYSKCSS

Source: patent US20200147178A1 (SYNERKINE PHARMA B V, published 2020)
